Holding throughout (experiment): EMSA
On the technique in general: A gel shift assay detects complexes by their altered migration in electrophoresis.

The subject of data set [1] is GST-AB (hAB) (human). Particulars: E. coli tRNA; RNA EMSA: 50 mM HEPES pH 8, 1 mM DTT, 100 mM NaCl, 0.01% BSA, 2% glycerol, 50 ng/uL E. coli tRNA, 0.25 nM RNA, 20 min on ice then 10 min 25 C; recombinant protein; protein details: N-terminal GST; label: 5'-32P.
Data set [2] concerns the target T1, GST-B R13-30K R55K,R59K,R60K,R63K,R67K,R69K,R70K,R72K (human) (UniProt Q15554).
T1 sequence (looked up): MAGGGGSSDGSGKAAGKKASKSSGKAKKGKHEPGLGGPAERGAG
Particulars: some binding from 80 nM; RNA EMSA: 50 mM HEPES pH 8, 1 mM DTT, 100 mM NaCl, 0.01% BSA, 2% glycerol, 50 ng/uL E. coli tRNA, 0.25 nM RNA, 20 min on ice then 10 min 25 C; recombinant protein; residues 43-86; protein details: N-terminal GST; label: 5'-32P.

For data set [3], the system named is GST-mAB (mouse). Particulars: E. coli tRNA; RNA EMSA: 50 mM HEPES pH 8, 1 mM DTT, 100 mM NaCl, 0.01% BSA, 2% glycerol, 50 ng/uL E. coli tRNA, 0.25 nM RNA, 20 min on ice then 10 min 25 C; recombinant protein; protein details: N-terminal GST; label: 5'-32P.
Data set [4] concerns the target T2, GST-B R30A R72A (human) (UniProt Q15554).
T2 sequence (looked up): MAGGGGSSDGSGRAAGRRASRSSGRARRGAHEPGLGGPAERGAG
The conditions noted are these: 80 nM protein, slight reduction; RNA EMSA: 50 mM HEPES pH 8, 1 mM DTT, 100 mM NaCl, 0.01% BSA, 2% glycerol, 50 ng/uL E. coli tRNA, 0.25 nM RNA, 20 min on ice then 10 min 25 C; recombinant protein; residues 43-86; protein details: N-terminal GST; label: 5'-32P.

Data set [5] has as its target T3, GST-B R27/28A R69A,R70A (human) (UniProt Q15554).
T3 sequence (looked up): T2 sequence (looked up) with R27A, R28A, A30R
The conditions noted are these: 80 nM protein, slight reduction; RNA EMSA: 50 mM HEPES pH 8, 1 mM DTT, 100 mM NaCl, 0.01% BSA, 2% glycerol, 50 ng/uL E. coli tRNA, 0.25 nM RNA, 20 min on ice then 10 min 25 C; recombinant protein; residues 43-86; protein details: N-terminal GST; label: 5'-32P.

The target of data set [6] is T4, GST-B R17A R59A (human) (UniProt Q15554).
T4 sequence (looked up): T2 sequence (looked up) with R17A, A30R
The conditions noted are these: 80 nM protein, slight reduction; RNA EMSA: 50 mM HEPES pH 8, 1 mM DTT, 100 mM NaCl, 0.01% BSA, 2% glycerol, 50 ng/uL E. coli tRNA, 0.25 nM RNA, 20 min on ice then 10 min 25 C; recombinant protein; residues 43-86; protein details: N-terminal GST; label: 5'-32P.

The target in data set [7] is T5, GST-B R25A R67A (human) (UniProt Q15554).
T5 sequence (looked up): T2 sequence (looked up) with R25A, A30R
Particulars: 80 nM protein, slight reduction; RNA EMSA: 50 mM HEPES pH 8, 1 mM DTT, 100 mM NaCl, 0.01% BSA, 2% glycerol, 50 ng/uL E. coli tRNA, 0.25 nM RNA, 20 min on ice then 10 min 25 C; recombinant protein; residues 43-86; protein details: N-terminal GST; label: 5'-32P.

In data set [8] the target is T6, GST-B R21A R63A (human) (UniProt Q15554).
T6 sequence (looked up): T2 sequence (looked up) with R21A, A30R
Particulars: 80 nM protein, slight reduction; RNA EMSA: 50 mM HEPES pH 8, 1 mM DTT, 100 mM NaCl, 0.01% BSA, 2% glycerol, 50 ng/uL E. coli tRNA, 0.25 nM RNA, 20 min on ice then 10 min 25 C; recombinant protein; residues 43-86; protein details: N-terminal GST; label: 5'-32P.

Data set [9] addresses T7, GST-B R17/18A R59A,R60A (human) (UniProt Q15554).
T7 sequence (looked up): T2 sequence (looked up) with R17A, R18A, A30R
Particulars: 80 nM protein, slight reduction; RNA EMSA: 50 mM HEPES pH 8, 1 mM DTT, 100 mM NaCl, 0.01% BSA, 2% glycerol, 50 ng/uL E. coli tRNA, 0.25 nM RNA, 20 min on ice then 10 min 25 C; recombinant protein; residues 43-86; protein details: N-terminal GST; label: 5'-32P.

Data set [10] has as its target T8, GST-B R27A R69A (human) (UniProt Q15554).
T8 sequence (looked up): T2 sequence (looked up) with R27A, A30R
The conditions noted are these: 80 nM protein, slight reduction; RNA EMSA: 50 mM HEPES pH 8, 1 mM DTT, 100 mM NaCl, 0.01% BSA, 2% glycerol, 50 ng/uL E. coli tRNA, 0.25 nM RNA, 20 min on ice then 10 min 25 C; recombinant protein; residues 43-86; protein details: N-terminal GST; label: 5'-32P.

In data set [11] the target is T9, GST-B R18A R60A (human) (UniProt Q15554).
T9 sequence (looked up): T2 sequence (looked up) with R18A, A30R
The conditions noted are these: 80 nM protein, slight reduction; RNA EMSA: 50 mM HEPES pH 8, 1 mM DTT, 100 mM NaCl, 0.01% BSA, 2% glycerol, 50 ng/uL E. coli tRNA, 0.25 nM RNA, 20 min on ice then 10 min 25 C; recombinant protein; residues 43-86; protein details: N-terminal GST; label: 5'-32P.

In data set [12] the target is T10, GST-B R28A R70A (human) (UniProt Q15554).
T10 sequence (looked up): T2 sequence (looked up) with R28A, A30R
The conditions noted are these: 80 nM protein, slight reduction; RNA EMSA: 50 mM HEPES pH 8, 1 mM DTT, 100 mM NaCl, 0.01% BSA, 2% glycerol, 50 ng/uL E. coli tRNA, 0.25 nM RNA, 20 min on ice then 10 min 25 C; recombinant protein; residues 43-86; protein details: N-terminal GST; label: 5'-32P.

For data set [13], the target named is T11, GST-B R13A R55A (human) (UniProt Q15554).
T11 sequence (looked up): T2 sequence (looked up) with R13A, A30R
The conditions noted are these: 80 nM protein, slight reduction; RNA EMSA: 50 mM HEPES pH 8, 1 mM DTT, 100 mM NaCl, 0.01% BSA, 2% glycerol, 50 ng/uL E. coli tRNA, 0.25 nM RNA, 20 min on ice then 10 min 25 C; recombinant protein; residues 43-86; protein details: N-terminal GST; label: 5'-32P.

Data set [14] deals with GST-A50-66B (human). Particulars: E. coli tRNA; RNA EMSA: 50 mM HEPES pH 8, 1 mM DTT, 100 mM NaCl, 0.01% BSA, 2% glycerol, 50 ng/uL E. coli tRNA, 0.25 nM RNA, 20 min on ice then 10 min 25 C; recombinant protein; protein details: N-terminal GST; label: 5'-32P.
Data set [15] relates to GST-AP2EDB (human). The conditions noted are these: almost no binding; RNA EMSA: 50 mM HEPES pH 8, 1 mM DTT, 100 mM NaCl, 0.01% BSA, 2% glycerol, 50 ng/uL E. coli tRNA, 0.25 nM RNA, 20 min on ice then 10 min …; recombinant protein; protein details: N-terminal GST; label: 5'-32P.

The source of these data is publication PMC9500956, “In Vitro Characterization of the Physical Interactions between the Long Noncoding RNA TERRA and the Telomeric Proteins TRF1 and TRF2”.

Substitutions are numbered along the chain they refer to. For some of these results: Weaker means in comparison with the reference protein, sequence or condition of that experiment. For some of these results: Where a protein sequence is shown, tags need not be part of it. For some of these results: Construct, isoform or probe ends are uncertain for at least one entry. For some of these results: No signal at the amounts used counts as a negative.

On to “UUAGGGUUAGGGUUAGGGUUAGGGUUAGGG [TERRA (UUAGGG)5]”, for which the binding result in data set [1] is listed as “no binding”; in [2] it was “binds more weakly”; in data set [3] it was “binds”; in [4] it was “binds more weakly”; in [5], “binds more weakly”; in data set [6], “binds more weakly”. In addition, the binding result in [7], in [8], in [9], in data set [10], in data set [11] and in data set [12] was “binds more weakly” throughout. Also, the binding result in [13] was “binds more weakly”.
With “UUAGGGUUAGGGUUAGGGUUAGGGUUAGGGUUAGGGUUAGGGUUAGGGUUAGGGUUAGGGUUAGGGUUAGGG [TERRA (UUAGGG)12]”, the binding result is “no binding” in data set [1], “no binding” in data set [14] and “binds more weakly” in data set [15].
